Assay results taken from US20110171160A1 (Nektar Therapeutics, priority 2008, published 2011).

Columns and labels:
peptide synthesis [1] = conditions: conjugation step
peptide synthesis [2] = conditions: conjugation step, analytical RP-HPLC, Waters Symmetry C18, detection at 280 nm; SDS-PAGE

**Q.** With “mono-[mPEG2-ButyrAldehyde-40K]-[Kisspeptin-54] (GTSLSPPPESSGSPQQPGLSAPHSRQIPAPQGAVLVQREKDLPNYNWNSFGLRF; Metastin mPEG2-butyraldehyde 40K, mono-PEGylated; UniProt Q15726 68-121, looked up)” as the substance, how does the “final HPLC purity” value (peptide synthesis [1]) read?
**A.** 100%

**Q.** With “LPNYNWNSFGLRF-NH2 (Kisspeptin-13 mPEG-butyraldehyde 30K, mono-PEGylated; UniProt Q15726 109-121, looked up)” as the substance, how does the “final HPLC purity” value (peptide synthesis [2]) read?
**A.** 100% pure
